# Measured values taken from PubChem BioAssay AID1347076 (National Center for Advancing Translational Sciences (NCATS), 2019).
# Out of some 400,000 compounds screened, about 13,000 (3.2%) were called active. Inconclusive results, whose numbers are uncertain, are shown with a selection of clear calls. Calls come from the whole dose curve; as a rule, active = well fitted cell-killing curve with a large enough effect; inconclusive = small, poorly fitted or top-dose-only effect, or effect the other way; inactive = flat fitted curve, though single readings scatter. Where the call is inconclusive, the potency comes from a doubtful curve fit.
# Assay: qHTS assay for MDR1-selective chemotherapeutics: Primary screen using the drug-selected MDR subline cells KB-V1; note: nearly all actives have a fitted effect of over 60% in size
# Conditions: KB-V1 MDR cells viability, CellTiter-Glo, 72 h; activity change, negative = cytotoxicity: at 46.1 µM (top of the series)
# How it was run: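 Luminescent ATP read-out (CellTiter-Glo, 10 min) measures survival of drug-selected KB-V1 MDR cells after 72 h, 37 degrees C compound exposure. Medium: phenol-red-free DMEM, 10% FBS. Values from fitted concentration-response curves.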
# % is set by controls: 0 for no effect and ±100 for the full control effect; potency is the fitted concentration of half-maximal effect.
Structure (SMILES),Potency,"activity change, negative = cytotoxicity"
O=C1Nc2cnc(Cl)nc2Nc2ccccc21,"inconclusive: 23.1 µM [cytotoxic, single point]",–
N#CCSc1nnc(COc2ccccc2)n1-c1ccccc1,active: 23.1 µM,–
COc1ccc(CNC(=O)COC(=O)c2c(C)nn(-c3ccccc3)c2C)cc1OC,"inconclusive: 20.6 µM [cytotoxic, single point]",–
COc1cccc(Nc2nnc(SCc3cc([N+](=O)[O-])cc4c3OCOC4)s2)c1,"inconclusive: 6.51 µM [cytotoxic, partial curve]",–
CCOc1ccc(C2C(C(=O)c3cccs3)=C(O)C(=O)N2CCN2CCOCC2)cc1 (centres undefined),–,inactive: 20.1%
O=c1cnnc(N/N=C/c2ccccn2)[nH]1,–,inactive: -9.92%
Cc1ccc2cc(NC(=O)c3ccc(C(C)(C)C)cc3)ccc2n1,"inconclusive: 32.6 µM [cytotoxic, single point]",–
COc1ccccc1CNC(=O)C1CCC(CNS(=O)(=O)c2ccc3c(c2)CCCC(=O)N3)CC1 (centres undefined),"inconclusive: 18.4 µM [rising, single point]",–
Cc1ccc(N2C(=O)CSC23C(=O)N(CC(=O)NCc2ccccc2)c2ccccc23)cc1C (centres undefined),–,inconclusive: -31.7% [cytotoxic]
O=C1C=C(c2cc3ccccc3s2)CCC1,–,inactive: -6.23%
Cc1nc(C)c(C(=O)N(c2ccc(F)cc2)C(C(=O)NCC2CCCO2)c2ccccc2)s1 (centres undefined),"inconclusive: 9.2 µM [cytotoxic, partial curve]",–
O=c1[nH]ncc(N/N=C\c2ccc(O)cc2O)c1Cl,"inconclusive: 23.1 µM [cytotoxic, partial curve, poor fit]",–
CC(=O)Nc1cc(-c2cccc(C(=O)NCCN(C)C)c2)cn2c(-c3cccc(C(F)(F)F)c3)cnc12,"inconclusive: 29.1 µM [cytotoxic, single point]",–
O=C(NNC(=O)c1cccc2ccccc12)c1ccc(-c2ccccc2)cc1,"inconclusive: 1.84 µM [cytotoxic, partial curve, poor fit]",–
Cc1ccc2c(Sc3ccc(Cl)cc3)c(C(=O)N3CCC(C)CC3)[nH]c2c1,"inconclusive: 23.1 µM [cytotoxic, single point]",–
c1ccc(CNc2ncnc3c2oc2ccccc23)nc1,active: 20.6 µM,–
CCOC(=O)CSC1=C(C#N)C(c2ccc(C)o2)CC(=O)N1 (centres undefined),"inconclusive: 0.651 µM [cytotoxic, full curve, poor fit]",–
COCCn1c(SCC(=O)N2CCCc3ccccc32)nc2cccnc21,"inconclusive: 1.3 µM [cytotoxic, partial curve, poor fit]",–
Brc1ccccc1OCCNCc1ccccc1,–,inactive: -7.39%

# Three structures already listed, sorted by count of non-hydrogen atoms, smallest number first:
Structure (SMILES),Potency,"activity change, negative = cytotoxicity"
CCOC(=O)CSC1=C(C#N)C(c2ccc(C)o2)CC(=O)N1 (centres undefined),"inconclusive: 0.651 µM [cytotoxic, full curve, poor fit]",–
O=C(NNC(=O)c1cccc2ccccc12)c1ccc(-c2ccccc2)cc1,"inconclusive: 1.84 µM [cytotoxic, partial curve, poor fit]",–
COc1cccc(Nc2nnc(SCc3cc([N+](=O)[O-])cc4c3OCOC4)s2)c1,"inconclusive: 6.51 µM [cytotoxic, partial curve]",–
